The results in this text go back to patent publication US11325893B2, “Hydrofluoroethers and methods of using same” (3M INNOVATIVE PROPERTIES COMPANY, priority 2018, dated 2022).

The nature of series [1]: Global Warming Potential (GWP) by three-part IPCC AR5 method. Conditions: 100 yr time horizon, relative to CO2; from measured radiative efficiency and atmospheric lifetime.
Series [2] is described as follows: Atmospheric lifetime from relative rate studies with hydroxyl radicals, chloromethane as reference compound. In kind it is physicochemical. Conditions: reaction with hydroxyl radicals in laboratory chamber, CH3Cl reference, FTIR quantification.

NOVEC 7700 [Comparative Example CE2]: the “GWP, 100 yr” value in series [1] is 436. Moreover, the “Atmospheric Lifetime” value in series [2] is on record as 5.6 yr.
For `FC(F)(F)C(F)(F)C1(F)OCCC1(C(F)(F)F)C(F)(F)F` (centres unmarked) [Example 1, 2-fluoro-2-(1,1,2,2,2-pentafluoroethyl)-3,3-bis(trifluoromethyl)tetrahydrofuran] the same measures were 17 and 0.37 yr.
For `COC(F)(C(F)(F)C(F)(F)F)C(F)(C(F)(F)F)C(F)(F)F` (centres unmarked) [CE1, NOVEC 7300] the same measures were 200 and 3.8 yr.
For `FC(F)(F)C(F)(F)C(F)(F)C1(C(F)(F)F)CCOC1(F)C(F)(C(F)(F)F)C(F)(F)F` (centres unmarked) [Example 2, 2-fluoro-3-(1,1,2,2,3,3,3-heptafluoropropyl)-2-[1,2,2,2-tetrafluoro-1-(trifluoromethyl)ethyl]-3-(trifluoromethyl)tetrahydrofuran] the same measures were 11 and 0.1 yr.
